# Reference: the supplement of paper PMC4604168 (melanoma cell lines)
# The other results are listed elsewhere or left out. Many values rest on one well or one pass, so single values are uncertain.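 The apoptosis fraction was the count of cleaved-PARP antibody-stained nuclei relative to all DNA-stained nuclei, imaged in 1,536-well plates. Screening doses were set so most cells survived, and baseline and induced cleaved-PARP levels vary greatly across cell lines.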
# What was measured:
# Assay in all cases: cleaved PARP positive nuclei fraction relative to DMSO control; melanoma cells; higher = more apoptosis
# Conditions in all cases: library dose: low library concentration; 72 h
# [1] = tested on: 501Mel
# [2] = tested on: A101D
# [3] = tested on: A2058
# [4] = tested on: A375
# [5] = tested on: C32
# [6] = tested on: CBRC008 (line from a melanoma biopsy)
# [7] = tested on: CBRC014 (line from a melanoma biopsy)
# [8] = tested on: CBRC016 (line from a melanoma biopsy)
# [9] = tested on: CBRC017 (line from a melanoma biopsy)
smiles,measurement,setting,value
"C[C@]12O[C@H](C[C@]1(O)CO)n1c3ccccc3c3c4c(c5c6ccccc6n2c5c31)CNC4=O [Lestaurtinib] + Nc1ncn([C@H]2C[C@H](O)[C@@H](CO)O2)c(=O)n1 [decitabine] (first compound 0.004 µM, partner dose 0.1 µM)",cleaved PARP positive nuclei fraction,[1],89.1%
same,cleaved PARP positive nuclei fraction,[2],32.1%
same,cleaved PARP positive nuclei fraction,[3],145%
same,cleaved PARP positive nuclei fraction,[4],70.6%
same,cleaved PARP positive nuclei fraction,[5],82.3%
same,cleaved PARP positive nuclei fraction,[6],36.7%
same,cleaved PARP positive nuclei fraction,[7],104%
same,cleaved PARP positive nuclei fraction,[8],33.4%
same,cleaved PARP positive nuclei fraction,[9],177%
"Cn1cnc2c(F)c(Nc3ccc(Br)cc3Cl)c(C(=O)NOCCO)cc21 [selumetinib] + C[C@]12O[C@H](C[C@]1(O)CO)n1c3ccccc3c3c4c(c5c6ccccc6n2c5c31)CNC4=O [Lestaurtinib] (first compound 0.015 µM, partner dose 0.004 µM)",cleaved PARP positive nuclei fraction,[1],185%
same,cleaved PARP positive nuclei fraction,[2],119%
same,cleaved PARP positive nuclei fraction,[3],107%
same,cleaved PARP positive nuclei fraction,[4],134%
same,cleaved PARP positive nuclei fraction,[5],96.5%
same,cleaved PARP positive nuclei fraction,[6],150%
same,cleaved PARP positive nuclei fraction,[7],94%
same,cleaved PARP positive nuclei fraction,[8],70%
same,cleaved PARP positive nuclei fraction,[9],177%
"CN1CCN(c2ccc3nc(-c4c(N)c5c(F)cccc5[nH]c4=O)[nH]c3c2)CC1 [Dovitinib] + C[As](C)SC[C@H](NC(=O)CC[C@H](N)C(=O)O)C(=O)NCC(=O)O [Darinaparsin] (first compound 0.1 µM, partner dose 0.4 µM)",cleaved PARP positive nuclei fraction,[1],92.7%
same,cleaved PARP positive nuclei fraction,[2],106%
same,cleaved PARP positive nuclei fraction,[3],222%
same,cleaved PARP positive nuclei fraction,[4],201%
same,cleaved PARP positive nuclei fraction,[5],79.3%
same,cleaved PARP positive nuclei fraction,[6],32.5%
same,cleaved PARP positive nuclei fraction,[7],100%
same,cleaved PARP positive nuclei fraction,[8],118%
same,cleaved PARP positive nuclei fraction,[9],120%
"N.N.[Cl][Pt][Cl] [cisplatin] + COc1ccc(Cl)c(Nc2nc3ccccc3nc2NS(=O)(=O)c2cccc(NC(=O)C(C)(C)N)c2)c1 [XL147] (first compound 1.6 µM, partner dose 0.8 µM)",cleaved PARP positive nuclei fraction,[1],58.5%
same,cleaved PARP positive nuclei fraction,[2],100%
same,cleaved PARP positive nuclei fraction,[3],155%
same,cleaved PARP positive nuclei fraction,[4],44.1%
same,cleaved PARP positive nuclei fraction,[5],67.3%
same,cleaved PARP positive nuclei fraction,[6],170%
same,cleaved PARP positive nuclei fraction,[7],147%
same,cleaved PARP positive nuclei fraction,[8],151%
same,cleaved PARP positive nuclei fraction,[9],223%
"N.N.[Cl][Pt][Cl] [cisplatin] + C[As](C)SC[C@H](NC(=O)CC[C@H](N)C(=O)O)C(=O)NCC(=O)O [Darinaparsin] (first compound 1.6 µM, partner dose 0.4 µM)",cleaved PARP positive nuclei fraction,[1],223%
same,cleaved PARP positive nuclei fraction,[2],89.8%
same,cleaved PARP positive nuclei fraction,[3],132%
same,cleaved PARP positive nuclei fraction,[4],195%
same,cleaved PARP positive nuclei fraction,[5],66.3%
same,cleaved PARP positive nuclei fraction,[6],141%
same,cleaved PARP positive nuclei fraction,[7],134%
same,cleaved PARP positive nuclei fraction,[8],218%
same,cleaved PARP positive nuclei fraction,[9],124%
"Cn1cc(C2=C(c3cn(C4CCN(Cc5ccccn5)CC4)c4ccccc34)C(=O)NC2=O)c2ccccc21 [Enzastaurin] + C[C@]1(c2nc3c(C(N)=O)cccc3[nH]2)CCCN1 [Veliparib] (first compound 0.8 µM, partner dose 1.4 µM)",cleaved PARP positive nuclei fraction,[1],140%
same,cleaved PARP positive nuclei fraction,[2],51.6%
same,cleaved PARP positive nuclei fraction,[3],286%
same,cleaved PARP positive nuclei fraction,[4],177%
same,cleaved PARP positive nuclei fraction,[5],87.4%
same,cleaved PARP positive nuclei fraction,[6],45.2%
same,cleaved PARP positive nuclei fraction,[7],107%
same,cleaved PARP positive nuclei fraction,[8],103%
same,cleaved PARP positive nuclei fraction,[9],93.1%
"O=C(/C=C/c1cccnc1)NCCCCC1CCN(C(=O)c2ccccc2)CC1 + C[C@]12O[C@H](C[C@]1(O)CO)n1c3ccccc3c3c4c(c5c6ccccc6n2c5c31)CNC4=O [Lestaurtinib] (first compound 0.01 µM, partner dose 0.004 µM)",cleaved PARP positive nuclei fraction,[1],123%
same,cleaved PARP positive nuclei fraction,[2],137%
same,cleaved PARP positive nuclei fraction,[3],57.3%
same,cleaved PARP positive nuclei fraction,[4],117%
same,cleaved PARP positive nuclei fraction,[5],50.4%
same,cleaved PARP positive nuclei fraction,[6],2940%
same,cleaved PARP positive nuclei fraction,[7],105%
same,cleaved PARP positive nuclei fraction,[8],1530%
same,cleaved PARP positive nuclei fraction,[9],428%
"N#CC[C@H](C1CCCC1)n1cc(-c2ncnc3[nH]ccc23)cn1 [ruxolitinib] + N.N.[Cl][Pt][Cl] [cisplatin] (first compound 1 µM, partner dose 1.6 µM)",cleaved PARP positive nuclei fraction,[1],86.3%
same,cleaved PARP positive nuclei fraction,[2],97.9%
same,cleaved PARP positive nuclei fraction,[3],173%
same,cleaved PARP positive nuclei fraction,[4],100%
same,cleaved PARP positive nuclei fraction,[5],82%
same,cleaved PARP positive nuclei fraction,[6],327%
same,cleaved PARP positive nuclei fraction,[7],113%
same,cleaved PARP positive nuclei fraction,[8],264%
same,cleaved PARP positive nuclei fraction,[9],108%
"Cn1cnc2c(F)c(Nc3ccc(Br)cc3Cl)c(C(=O)NOCCO)cc21 [selumetinib] + N.N.[Cl][Pt][Cl] [cisplatin] (first compound 0.015 µM, partner dose 1.6 µM)",cleaved PARP positive nuclei fraction,[1],449%
same,cleaved PARP positive nuclei fraction,[2],126%
same,cleaved PARP positive nuclei fraction,[3],139%
same,cleaved PARP positive nuclei fraction,[4],199%
same,cleaved PARP positive nuclei fraction,[5],44.7%
same,cleaved PARP positive nuclei fraction,[6],185%
same,cleaved PARP positive nuclei fraction,[7],94.2%
same,cleaved PARP positive nuclei fraction,[8],159%
same,cleaved PARP positive nuclei fraction,[9],117%
"Cn1cc(C2=C(c3cn(C4CCN(Cc5ccccn5)CC4)c4ccccc34)C(=O)NC2=O)c2ccccc21 [Enzastaurin] + CC(=O)c1c(C)c2cnc(Nc3ccc(N4CCNCC4)cn3)nc2n(C2CCCC2)c1=O [palbociclib] (first compound 0.8 µM, partner dose 0.04 µM)",cleaved PARP positive nuclei fraction,[1],119%
same,cleaved PARP positive nuclei fraction,[2],113%
same,cleaved PARP positive nuclei fraction,[3],254%
same,cleaved PARP positive nuclei fraction,[4],151%
same,cleaved PARP positive nuclei fraction,[5],84%
same,cleaved PARP positive nuclei fraction,[6],56.8%
same,cleaved PARP positive nuclei fraction,[7],124%
same,cleaved PARP positive nuclei fraction,[8],89.4%
same,cleaved PARP positive nuclei fraction,[9],121%
"Cn1cc(C2=C(c3cn(C4CCN(Cc5ccccn5)CC4)c4ccccc34)C(=O)NC2=O)c2ccccc21 [Enzastaurin] + Nc1ncn([C@H]2C[C@H](O)[C@@H](CO)O2)c(=O)n1 [decitabine] (first compound 0.8 µM, partner dose 0.1 µM)",cleaved PARP positive nuclei fraction,[1],64.6%
same,cleaved PARP positive nuclei fraction,[2],142%
same,cleaved PARP positive nuclei fraction,[3],154%
same,cleaved PARP positive nuclei fraction,[4],180%
same,cleaved PARP positive nuclei fraction,[5],65.2%
same,cleaved PARP positive nuclei fraction,[6],118%
same,cleaved PARP positive nuclei fraction,[7],92.6%
same,cleaved PARP positive nuclei fraction,[8],147%
same,cleaved PARP positive nuclei fraction,[9],105%

# Reprinted at random: 6 records from the list.
smiles,measurement,setting,value
"N.N.[Cl][Pt][Cl] [cisplatin] + C[As](C)SC[C@H](NC(=O)CC[C@H](N)C(=O)O)C(=O)NCC(=O)O [Darinaparsin] (first compound 1.6 µM, partner dose 0.4 µM)",cleaved PARP positive nuclei fraction,[5],66.3%
"O=C(/C=C/c1cccnc1)NCCCCC1CCN(C(=O)c2ccccc2)CC1 + C[C@]12O[C@H](C[C@]1(O)CO)n1c3ccccc3c3c4c(c5c6ccccc6n2c5c31)CNC4=O [Lestaurtinib] (first compound 0.01 µM, partner dose 0.004 µM)",cleaved PARP positive nuclei fraction,[5],50.4%
"N#CC[C@H](C1CCCC1)n1cc(-c2ncnc3[nH]ccc23)cn1 [ruxolitinib] + N.N.[Cl][Pt][Cl] [cisplatin] (first compound 1 µM, partner dose 1.6 µM)",cleaved PARP positive nuclei fraction,[9],108%
same,cleaved PARP positive nuclei fraction,[5],82%
"Cn1cc(C2=C(c3cn(C4CCN(Cc5ccccn5)CC4)c4ccccc34)C(=O)NC2=O)c2ccccc21 [Enzastaurin] + CC(=O)c1c(C)c2cnc(Nc3ccc(N4CCNCC4)cn3)nc2n(C2CCCC2)c1=O [palbociclib] (first compound 0.8 µM, partner dose 0.04 µM)",cleaved PARP positive nuclei fraction,[2],113%
"Cn1cc(C2=C(c3cn(C4CCN(Cc5ccccn5)CC4)c4ccccc34)C(=O)NC2=O)c2ccccc21 [Enzastaurin] + Nc1ncn([C@H]2C[C@H](O)[C@@H](CO)O2)c(=O)n1 [decitabine] (first compound 0.8 µM, partner dose 0.1 µM)",cleaved PARP positive nuclei fraction,[6],118%
